For at least one compound, name, drawing or mass did not settle the structure.
Test system: hTERT/E6/E7 cells
Assay: MTT cell viability assay, non-cancerous hTERT/E6/E7 cells, TMZ with or without plasma discharge tube electro-magnetic field
Format: cell-based
Method: In one experiment conducted using the test system 10 in FIGS. 1A-1B, human glioblastoma cancer cell lines U87 and A172 as well as […] E6/E7 were provided from the ATCC (City of Manassas, VA), and were grown in Dulbecco's Modified Eagle Medium (Gibco) supplemented with 10% fetal bovine serum (Atlanta Biologicals) and 1% penicillin-streptomycin solution (Invitrogen) under standard cell culture conditions (humidified atmosphere with 5% CO2 at 37° C.). After one passage, 10,000 cells in 100 μL medium were seeded into 96-well plates such as the plate 134 in FIG. 1A. The cells were cultured for 24 hours before the experiment was performed to ensure proper cell attachment and stability.
Cell viability was analyzed by using an MTT assay available from Sigma-Aldrich, which is a colorimetric assay for analyzing the cell metabolic activity. The MTT protocol is based on NAD(P)H-dependent cellular oxidoreductases, which reduces the water-soluble MTT ((3-(4,5-dimethylthiazol-2-yl)-2,5-diphenyltetrazolium bromide) to an insoluble formazan product. Cells with active metabolism can transform MTT into formazan; however, dead cells cannot transform MTT into formazan and will not show detectable signal. The measured absorbance at OD 590 nm is proportional to the number of viable cells. […]

## Cn1nnc2c(C(N)=O)ncn2c1=O [TMZ, Temozolomide]
4 minutes electro-magnetic field at 1 mm, then 250 μM TMZ, hTERT/E6/E7 cells
  sensitization effect, TMZ plus field versus TMZ only: no significant sensitization effect difference
7 minutes electro-magnetic field exposure, TMZ treatment afterward
  effect of combination treatment on non-cancerous cells: less than the effect on the cancer cells

Source: patent US12458809B2, “Method and system of using plasma discharge tube for sensitization of cancer cells” (The George Washington University, priority 2019, dated 2025)
